Test results reported in patent publication US9890195B2, “MK2 inhibitor compositions and methods to enhance neurite outgrowth, neuroprotection, and nerve regeneration” (Purdue Research Foundation, priority 2009, dated 2018).
Part of at least one peptide drawing is inferred or uncertain, most often the ends. Where no end group is shown, it is not given here.

How the values were obtained:
[1] = tested on: mixed cortical cultures comprising neurons, astrocytes, and microglia; test: Immunocytochemistry/cell imaging of mixed cortical cultures treated with MK2i and TNF-α; assay type: cell-based, Sprague-Dawley rat
Experimental: The effect of MK2i on neuronal cell death and microglical activation was investigated by treating 1-week old mixed cortical cultures comprising neurons, astrocytes, and microglia with the MK2i peptide […] [SEQ ID NO: 33]. Primary Cortical Cell Culture
Embryonic rat cortical tissue was obtained immediately following removal of embryos from the rat's abdomen. E17 Sprague-Dawley rat cortical tissue was placed in a 50 ml conical tube containing 5 ml of Solution 1 (NaCl 7.24 g/L; KCl 0.4 g/L; NaH2PO4 0.14 g/L; Glucose 2.61 g/L; Hepes 5.96 g/L; MgSO4 0.295 g/L; Bovine Serum Albumin 3 g/L). Under sterile conditions, 18 μl of trypsin solution (7.5 mg/ml in 0.9% saline) was added and tissue was passed through a 5-ml pipet several times to disassociate tissue. After the conical tube was placed in a 37° C. water bath for 20 minutes, 100 μl of trypsin inhibitor/DNAse solution (2.5 mg/ml trypsin inhibitor, 400 μg/ml DNase in 0.9% saline) was added to the tube and tissue was pipetted several times with a 5-ml pipet. Tissue was centrifuged at 1,000 rpm for 5 minutes at room temperature and supernatant was poured off. Cells were re-suspended in 16 ml of Hibernate E (BrainBits, Springfield, Ill.) and 100 μl of trypsin inhibitor/DNAse solution and pipetted up and down several times. Cells were filtered through a cell strainer and centrifuged at 1,400 rpm for 5 minutes at room temperature. Supernatant was poured off and cells were re-suspended in media. Primary cells were then plated in poly-D-lysine coated 96-well plates at a seeding density of 625,000 cells/cm^2 and incubated for 7-9 days at 37° C. After 7-9 days, cortical cells were treated with 5 ng/ml or 10 ng/ml of TNF-α to activate microglia. Cells then were treated with 0, 0.5, 1, or 3 mM MK2i peptide […] [SEQ ID NO: 33] for 4 hours, 8 hours, and 24 hours. After treatment, media was removed and stored at −20° C.
In preparation for staining mixed cortical cells, cell media was replaced with phosphate-buffered 4% formaldehyde solution for 5 minutes, followed by three washes using HBHS solution (HEPES-buffered Hank's saline containing 10 mg/L sodium azide, pH 7.4). Blocking solution, consisting of 10% normal goat serum in HBHS, then was applied for 30 minutes, followed by three washes with HBHS. Microglia, astrocytes, and neurons were labeled using antibodies against ionized calcium binding adaptor molecule 1 (Iba1, Wako), glial fibrillary acidic protein (GFAP, Millipore), and β-3-tubulin (β3tub, Covance), respectively. Antibodies were applied for 2 hours, at a dilution of 1:400 in HBHS. After two 10 minute washes and one 30 minute wash, secondary antibodies were applied. Alexafluor 488 goat-anti-mouse, Alexafluor 555 goat-anti-chicken, and Alexafluor 635 goat anti-rabbit (all from Invitrogen, Carlsbad, Calif.) were applied at 1:400 along with Hoescht 33342 at approximately 1:10000 (Invitrogen, Carlsbad, Calif.) in HBHS for 2 hours. All immunocytochemistry procedures were performed at room temperature, and stored at 4° C. in HBHS+sodiumazide prior to imaging.
Cell imaging was accomplished using an Olympus IX81 microscope equipped with an Olympus FV1000 laser confocal system through Olympus 10×/0.40×/0.80 water emersion objectives. Image channels were collected sequentially using 488 nm, 543 nm, and 633 nm laser lines, along with a tunable MaiTai laser (Spectra Physics) set to 740 nm. […]

IL-6 = IL-6 ELISA on media of TNF-α-activated cortical cultures; assay type: cell-based, rat; settings: 5 ng/ml and 10 ng/ml TNF-α; 0.5 mM, 1 mM, and 3 mM MK2i; 4 hours, 8 hours, or 24 hours; Dunnett's method
IL-1β = IL-1β ELISA on media of TNF-α-activated cortical cultures; assay type: cell-based, rat

YARAAARQARAKALARQLGVAA-NH2 [MK2i]
TNF-α-induced neuronal cell damage (FIG. 4) ([1]; 5 ng/ml and 10 ng/ml TNF-α, 0.5 and 1 mM MK2i): suppressed
decreased neuronal population caused by TNF-α (FIG. 4) ([1]; 10 ng/ml TNF-α along with MK2i, both 0.5 mM and 1 mM): not observed
presence of neurons, astrocytes, and microglia in mixed cortical cultures ([1]; 1-week old cultures, following MK2i treatment): maintained
microglial swelling (FIG. 5) ([1]; 24 hour TNF-α and MK2i treatment (1 mM)): induces microglial swelling
microglial spreading caused by TNF-α (FIG. 5) ([1]; 24 hour, 10 ng/ml TNF-α and 1 mM MK2i): suppresses the microglial spreading
mean IL-6 concentration vs TNF-α control (IL-6): significantly decreased
mean IL-1β concentration vs TNF-α control (IL-1β; 5 ng/ml TNF-α, 0.5 mM, 1 mM, and 3 mM MK2i, 4 hours, 8 hours and 24 hours): significantly decreased
mean IL-1β concentration vs TNF-α control (IL-1β; 10 ng/ml TNF-α, 0.5 mM and 1 mM MK2i, 24 hours, decrease not statistically significant): decreased
mean IL-1β concentration vs TNF-α control (IL-1β; 10 ng/ml TNF-α, 0.5 mM, 1 mM, and 3 mM MK2i, 4 hours and 8 hours): significantly decreased
mean IL-1β concentration vs TNF-α control (IL-1β; 10 ng/ml TNF-α, 3 mM MK2i, 24 hours): statistically significant decrease
